Results taken from PMC3589825, “The AFF4 scaffold binds human P-TEFb adjacent to HIV Tat” (eLife, 2013).
Residue numbers refer to the chain shown, from its start. Results are given in words; binding and its absence hold for the method and conditions named. For part of these data: Binding seen in cells or lysates may run through a third protein. Some entries that bind do so weakly or less than the wild type. For part of these data: Sequences can lack the tags named with a protein. Values belong to the molecule of their own block, whether it stands above or below them.

Amino acid sequences for entries named in this document (tags omitted). A change or cut given only in a name is not applied to a line headed by its entry.
UniProt P50750: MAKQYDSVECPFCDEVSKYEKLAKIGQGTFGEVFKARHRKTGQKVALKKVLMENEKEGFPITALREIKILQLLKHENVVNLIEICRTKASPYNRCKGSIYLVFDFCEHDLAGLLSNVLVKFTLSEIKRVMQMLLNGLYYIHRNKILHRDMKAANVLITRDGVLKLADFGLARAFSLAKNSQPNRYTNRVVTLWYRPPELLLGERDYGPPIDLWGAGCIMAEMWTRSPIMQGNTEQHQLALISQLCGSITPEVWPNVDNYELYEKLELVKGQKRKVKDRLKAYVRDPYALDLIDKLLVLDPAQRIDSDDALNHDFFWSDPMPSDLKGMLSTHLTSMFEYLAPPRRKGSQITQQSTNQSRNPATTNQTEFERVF
UniProt P42568: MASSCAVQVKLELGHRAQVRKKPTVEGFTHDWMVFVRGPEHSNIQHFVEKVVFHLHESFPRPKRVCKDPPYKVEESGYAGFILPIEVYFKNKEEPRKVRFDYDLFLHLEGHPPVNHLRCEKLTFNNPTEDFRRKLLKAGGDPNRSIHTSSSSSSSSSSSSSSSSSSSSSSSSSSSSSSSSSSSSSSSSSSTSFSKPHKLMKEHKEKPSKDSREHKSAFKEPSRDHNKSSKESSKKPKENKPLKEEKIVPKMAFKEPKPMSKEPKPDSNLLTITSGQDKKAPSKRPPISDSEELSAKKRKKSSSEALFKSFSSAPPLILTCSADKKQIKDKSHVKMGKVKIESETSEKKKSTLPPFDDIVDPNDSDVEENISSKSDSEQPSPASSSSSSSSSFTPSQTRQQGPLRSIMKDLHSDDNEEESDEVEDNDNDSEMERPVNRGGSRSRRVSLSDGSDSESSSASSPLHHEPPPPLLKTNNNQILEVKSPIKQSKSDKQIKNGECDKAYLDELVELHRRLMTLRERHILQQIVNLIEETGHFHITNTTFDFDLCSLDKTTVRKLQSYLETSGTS
UniProt P04608: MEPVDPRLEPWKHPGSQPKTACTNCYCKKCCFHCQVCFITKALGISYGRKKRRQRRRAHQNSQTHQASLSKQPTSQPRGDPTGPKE

How the values were obtained:
[1] = molecular target: T1, AFF4 Phe35 alanine mutant with C-terminal 3× FLAG tag (human) (UniProt Q9UHB7); test: co-IP; HeLa cells transfected with AFF4 variants with C-terminal 3× FLAG; nuclear extract, anti-FLAG agarose beads 2 hr at 4°C, glycine elution, Western blot; without or with a stably integrated, overexpressed gene for Tat
T1 sequence: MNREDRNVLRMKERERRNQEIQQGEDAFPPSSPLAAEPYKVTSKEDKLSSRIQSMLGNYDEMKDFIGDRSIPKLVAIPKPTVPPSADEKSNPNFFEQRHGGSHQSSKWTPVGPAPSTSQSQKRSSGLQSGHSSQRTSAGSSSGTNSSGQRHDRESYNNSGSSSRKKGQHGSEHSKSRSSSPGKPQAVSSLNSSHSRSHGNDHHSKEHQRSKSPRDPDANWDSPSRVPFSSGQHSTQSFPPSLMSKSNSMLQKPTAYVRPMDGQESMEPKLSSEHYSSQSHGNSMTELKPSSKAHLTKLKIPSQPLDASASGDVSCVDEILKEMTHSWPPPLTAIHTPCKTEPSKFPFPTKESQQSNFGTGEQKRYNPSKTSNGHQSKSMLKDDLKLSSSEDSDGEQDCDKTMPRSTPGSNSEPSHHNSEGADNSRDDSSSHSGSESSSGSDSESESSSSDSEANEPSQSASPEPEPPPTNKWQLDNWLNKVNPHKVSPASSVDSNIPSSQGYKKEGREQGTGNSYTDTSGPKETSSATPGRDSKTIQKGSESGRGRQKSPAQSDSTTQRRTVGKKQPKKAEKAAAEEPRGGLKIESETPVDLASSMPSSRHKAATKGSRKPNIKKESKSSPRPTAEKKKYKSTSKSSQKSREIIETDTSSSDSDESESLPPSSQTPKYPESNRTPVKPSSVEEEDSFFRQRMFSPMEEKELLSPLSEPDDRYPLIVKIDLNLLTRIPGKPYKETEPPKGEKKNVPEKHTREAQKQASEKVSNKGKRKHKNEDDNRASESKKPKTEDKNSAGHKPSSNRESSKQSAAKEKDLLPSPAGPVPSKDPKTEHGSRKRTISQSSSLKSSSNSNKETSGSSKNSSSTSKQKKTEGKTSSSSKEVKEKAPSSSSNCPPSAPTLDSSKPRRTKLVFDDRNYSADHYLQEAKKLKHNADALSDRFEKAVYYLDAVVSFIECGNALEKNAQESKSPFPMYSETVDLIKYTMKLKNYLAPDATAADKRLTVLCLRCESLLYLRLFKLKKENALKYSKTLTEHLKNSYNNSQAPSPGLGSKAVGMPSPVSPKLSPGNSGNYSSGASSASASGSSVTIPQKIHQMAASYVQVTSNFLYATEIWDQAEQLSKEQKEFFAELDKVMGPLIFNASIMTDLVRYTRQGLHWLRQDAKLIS

[2] = molecular target: T2, AFF4 wild type with C-terminal 3× FLAG tag (human) (UniProt Q9UHB7); test: as above
T2 sequence: T1 sequence with A35F

[3] = molecular target: T3, AFF4 Tyr59/Asp60 di-alanine mutant with C-terminal 3× FLAG tag (human) (UniProt Q9UHB7); test: as above
T3 sequence: T1 sequence with A35F, Y59A, D60A

[4] = molecular target: T4, AFF4 Lys63/Asp64 di-alanine mutant with C-terminal 3× FLAG tag (human) (UniProt Q9UHB7); test: as above
T4 sequence: T1 sequence with A35F, K63A, D64A

[5] = molecular target: P-TEFb (CDK9 1–330 / cyclin T1 1–264) (human) (UniProt P50750); test: co-purification (His-Trap, then ion exchange chromatography); insect cells coinfected with His-CDK9, CycT1 and Tat viruses; His-Trap, TEV digest, Source S column in 20 mM Na-HEPES pH 7.3, 10% glycerol, 1 mM DTT with NaCl gradient

binding [1]: binds
binding [2]: binds
binding [3]: binds
binding [4]: binds
Molecule: AF9, endogenous in HeLa cells (from UniProt P42568 1-568)

Molecule: HIV-1 Tat (1–86) (from UniProt P04608 1-86)
binding [5]: binds

binding [1]: binds
binding [2]: binds
binding [3]: binds
binding [4]: binds
B1: ENL, endogenous in HeLa cells (protein, UniProt Q03111 1-559)
chain: MDNQCTVQVRLELGHRAQLRKKPTTEGFTHDWMVFVRGPEQCDIQHFVEKVVFWLHDSFPKPRRVCKEPPYKVEESGYAGFIMPIEVHFKNKEEPRKVCFTYDLFLNLEGNPPVNHLRCEKLTFNNPTTEFRYKLLRAGGVMVMPEGADTVSRPSPDYPMLPTIPLSAFSDPKKTKPSHGSKDANKESSKTSKPHKVTKEHRERPRKDSESKSSSKELEREQAKSSKDTSRKLGEGRLPKEEKAPPPKAAFKEPKMALKETKLESTSPKGGPPPPPPPPPRASSKRPATADSPKPSAKKQKKSSSKGSRSAPGTSPRTSSSSSFSDKKPAKDKSSTRGEKVKAESEPREAKKALEVEESNSEDEASFKSESAQSSPSNSSSSSDSSSDSDFEPSQNHSQGPLRSMVEDLQSEESDEDDSSSGEEAAGKTNPGRDSRLSFSDSESDNSADSSLPSREPPPPQKPPPPNSKVSGRRSPESCSKPEKILKKGTYDKAYTDELVELHRRLMALRERNVLQQIVNLIEETGHFNVTNTTFDFDLFSLDETTVRKLQSCLEAVAT
